According to patent US20190127468A1:
No constants are given. Whether binding was seen depends on the method and setting. Some binding calls cover weakened binding; strength is not graded here.

Molecular target: mouse CTLA4-Fc fusion protein (mouse) (UniProt P09793)
Experiment: ELISA, plate-coated mCTLA4-Fc, biotinylated B7-1 Fc

Substance: human B7-1 Fc fusion protein (from UniProt P33681 35-242)
- binding: binds
